Paper PMC5303273
Results are given in words; binding and its absence hold for the method and conditions named. For some assays here: In cells and extracts the contact can be indirect. Some binding calls cover weakened binding; strength is not graded here. For some assays here: Tags and fused reporters may be left off the sequences shown.

Protein sequences, listed by entry. Tags and fused reporters are not part of them.
UniProt O18332: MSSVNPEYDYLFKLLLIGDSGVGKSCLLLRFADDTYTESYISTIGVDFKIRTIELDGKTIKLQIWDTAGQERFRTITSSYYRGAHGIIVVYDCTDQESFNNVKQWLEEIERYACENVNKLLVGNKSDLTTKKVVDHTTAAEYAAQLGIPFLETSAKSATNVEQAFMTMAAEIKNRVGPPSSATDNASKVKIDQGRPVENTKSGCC

B1: GFP-Cog7 (protein, UniProt Q9VAD6 1-742)
chain: MDVSALSETTFSPAEWINANYKKFVEENGRDDSEAASAFIRSYVAKLQLYIFNVNNAVEESSRQVVASMPRIAKESAALQADVHRLQEKMSAMRLEVAAVQSETGECMATLERLNTKSQKLQVAKESLQESDGWGNLLAELEDGFERNDLKGVCDKLIALQKSLHAQEQLPGHAERQTQVEDFKNRLEALASPSVVQCFAEGNTEQAQHFVQIFTSIQRLPQLQQYYRAVQKNFWQQQWKQTLELQGTESQPQQQQFLTLYYDQLLEHCQRQVKWCSNLFGENSPQPFLVIAELLPALQPTRDAHILQLLKTSNERLEMLALFAKVNHSFVLHLNSLLEQSHITLSEELHRLLGEAIFEYFHKFIQQYPRLEETQLSTQVDRLSSNQATPSDGVRHLEESTRKLYEWLKEACERCASITSDLALCKLITLLNGIFKRQLESFGRIQRQIGLSLGSSSYAAQSENWSLLQYTMSQLQCLADFQVQLHQFEQDLHTRMVMLSNRLTKPSNRGPITIFQTCDHAARTQLLNSIADYQQKKSEATDSLGIFPQIYATLKSHFADTHDITLNILLQPIETHLAHIRPPVQDHAASGIEMPSFSFAPQESITQIGQYLLTLPQHLEPLLLSPSSLLKQALEVCNIKYTQAIPCADVLLSLVVEQCCVLYVTQILQIKSLPSSAATQLSVDIEYLSNVLEELGLSINLQLSQILTLLKAAPDQYLTLSSGCEPRLVTAIRQMRNIISTQ
B2: Cog7 prey (yeast two-hybrid) (protein, UniProt Q9VAD6 1-742)
chain: B1 chain

Legend:
[1] = biological target: T1, GST-Rab11 (Drosophila melanogaster) (UniProt O18335); experiment: pull-down; GST, GST-Rab1 or GST-Rab11 on Glutathione-Sepharose 4B beads incubated with larval brain lysates from animals expressing GFP-Cog7; 25 mM Tris-HCl pH 7.4, 150 mM NaCl, 0.5% NP-40, 1 mM EDTA; 4°C for 2 h; blot with anti-GFP; only the target purified
T1 sequence: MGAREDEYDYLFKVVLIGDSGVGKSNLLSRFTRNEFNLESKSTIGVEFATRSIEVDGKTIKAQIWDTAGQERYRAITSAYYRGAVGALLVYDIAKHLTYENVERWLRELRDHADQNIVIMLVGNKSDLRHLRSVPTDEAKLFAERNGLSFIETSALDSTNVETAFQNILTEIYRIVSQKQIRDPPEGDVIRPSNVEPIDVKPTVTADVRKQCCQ

[2] = biological target: Rab1 bait (yeast two-hybrid) (Drosophila melanogaster) (UniProt O18332); experiment: two-hybrid; B42/lexA system, strain EGY48, bait in pEG202, prey in pJG4-5; X-GAL plates with raffinose or galactose; beta-galactosidase assay with ONPG

Row | Binder | binding [1] | binding [2]
1 | B1 | binds | –
2 | B2 | – | no binding
